Laboratory results reported in publication PMC5626541.
Like-named read-outs stand apart in the source and are kept apart here. These are yes or no findings as the source states them, for the method shown. For some assays here: In cells and extracts the contact can be indirect. Some binding calls cover weakened binding; strength is not graded here. For some assays here: Where a sequence is shown, tags or fusion partners need not be part of it.

Chains of the proteins cited; added tags and fusions are not shown. Lines headed by an entry give the natural chain unless they say otherwise; changes in a name come on top. A line that says so, or that is headed by a name, gives the form on record, which may keep a tag or linker. Residues count along the entry.
UniProt Q9EP80: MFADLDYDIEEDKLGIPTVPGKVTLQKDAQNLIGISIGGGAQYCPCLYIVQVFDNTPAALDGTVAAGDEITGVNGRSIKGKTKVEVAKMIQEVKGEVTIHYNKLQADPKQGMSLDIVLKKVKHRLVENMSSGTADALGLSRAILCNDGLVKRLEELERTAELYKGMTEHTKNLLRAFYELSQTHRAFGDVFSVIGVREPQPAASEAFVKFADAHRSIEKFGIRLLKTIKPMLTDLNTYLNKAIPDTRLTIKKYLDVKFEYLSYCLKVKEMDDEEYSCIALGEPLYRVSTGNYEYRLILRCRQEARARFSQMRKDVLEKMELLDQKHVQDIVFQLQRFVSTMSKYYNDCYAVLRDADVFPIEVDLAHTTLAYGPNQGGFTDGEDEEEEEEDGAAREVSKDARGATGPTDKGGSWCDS
GST-DDAA-PICK1 (Q9EP80, form named): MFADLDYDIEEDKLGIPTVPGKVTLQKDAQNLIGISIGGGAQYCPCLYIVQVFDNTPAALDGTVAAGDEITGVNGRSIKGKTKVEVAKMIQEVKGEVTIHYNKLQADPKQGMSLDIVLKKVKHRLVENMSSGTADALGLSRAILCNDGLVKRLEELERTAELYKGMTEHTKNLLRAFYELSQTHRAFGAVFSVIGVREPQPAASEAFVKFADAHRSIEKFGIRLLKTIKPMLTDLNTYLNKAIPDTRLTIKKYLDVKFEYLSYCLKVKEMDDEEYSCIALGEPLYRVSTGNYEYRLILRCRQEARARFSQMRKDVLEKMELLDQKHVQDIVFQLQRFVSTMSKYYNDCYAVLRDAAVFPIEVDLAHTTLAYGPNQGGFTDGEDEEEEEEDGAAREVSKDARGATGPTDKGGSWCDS
UniProt P19491, residues 22-883: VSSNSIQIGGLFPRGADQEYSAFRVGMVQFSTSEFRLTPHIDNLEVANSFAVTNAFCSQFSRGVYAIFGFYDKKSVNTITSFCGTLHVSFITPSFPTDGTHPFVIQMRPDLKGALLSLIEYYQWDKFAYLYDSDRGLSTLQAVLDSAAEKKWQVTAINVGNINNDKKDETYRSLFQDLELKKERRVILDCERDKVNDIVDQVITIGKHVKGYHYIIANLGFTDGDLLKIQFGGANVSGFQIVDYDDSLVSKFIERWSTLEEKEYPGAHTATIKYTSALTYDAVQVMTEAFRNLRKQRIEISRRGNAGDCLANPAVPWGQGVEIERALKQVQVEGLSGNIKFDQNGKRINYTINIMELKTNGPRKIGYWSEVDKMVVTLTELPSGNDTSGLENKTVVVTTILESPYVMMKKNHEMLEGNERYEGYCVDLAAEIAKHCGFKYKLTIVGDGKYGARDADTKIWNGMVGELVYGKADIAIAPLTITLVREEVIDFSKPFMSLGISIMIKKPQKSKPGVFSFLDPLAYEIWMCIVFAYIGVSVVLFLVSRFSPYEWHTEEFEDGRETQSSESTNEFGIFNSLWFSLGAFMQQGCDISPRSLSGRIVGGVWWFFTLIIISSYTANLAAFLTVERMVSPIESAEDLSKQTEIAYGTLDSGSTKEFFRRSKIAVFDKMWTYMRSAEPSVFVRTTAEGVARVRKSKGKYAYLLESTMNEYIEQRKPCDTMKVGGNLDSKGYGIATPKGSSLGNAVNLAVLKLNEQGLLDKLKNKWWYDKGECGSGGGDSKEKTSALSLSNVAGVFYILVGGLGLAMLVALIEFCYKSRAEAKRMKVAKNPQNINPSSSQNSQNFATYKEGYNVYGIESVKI

Assays:
GST-D189A-PICK1 = GST-D189A-PICK1 (UniProt Q9EP80); assay: pull-down; GST, GST-PICK1 or mutants immobilised on glutathione agarose, incubated at 4°C with neuronal extracts in lysis buffer, Western blot; only the target purified
GST-D356A-PICK1 = GST-D356A-PICK1 (UniProt Q9EP80); assay: as above
GST-DDAA-PICK1 = GST-DDAA-PICK1 (UniProt Q9EP80); assay: as above
GST-PICK1 (wild type) [1] = target: GST-PICK1 (wild type) (UniProt Q9EP80); assay: as above
[2] = target: PICK1 (endogenous, cortical neurons) (rat (endogenous in cortical neurons)) (UniProt Q9EP80); assay: co-IP; extracts of cortical neuronal cultures in lysis buffer (20 mM Tris-HCl pH 7.5, 150 mM NaCl, 0.5% Triton X-100), 5 µg anti-PICK1 or control IgG plus protein G-Sepharose, Western blot; basal, at time points after 3 min NMDA, with cyclosporin A or FK506, with PACSIN/syndapin knock-down
[3] = target: T1, GFP-dynamin 2 (full-length) (UniProt P39052); assay: co-IP; GFP-trap pulldown: extracts of cotransfected HEK293 cells in lysis buffer incubated with 10 µl GFP-trap agarose beads, Western blot
T1 sequence: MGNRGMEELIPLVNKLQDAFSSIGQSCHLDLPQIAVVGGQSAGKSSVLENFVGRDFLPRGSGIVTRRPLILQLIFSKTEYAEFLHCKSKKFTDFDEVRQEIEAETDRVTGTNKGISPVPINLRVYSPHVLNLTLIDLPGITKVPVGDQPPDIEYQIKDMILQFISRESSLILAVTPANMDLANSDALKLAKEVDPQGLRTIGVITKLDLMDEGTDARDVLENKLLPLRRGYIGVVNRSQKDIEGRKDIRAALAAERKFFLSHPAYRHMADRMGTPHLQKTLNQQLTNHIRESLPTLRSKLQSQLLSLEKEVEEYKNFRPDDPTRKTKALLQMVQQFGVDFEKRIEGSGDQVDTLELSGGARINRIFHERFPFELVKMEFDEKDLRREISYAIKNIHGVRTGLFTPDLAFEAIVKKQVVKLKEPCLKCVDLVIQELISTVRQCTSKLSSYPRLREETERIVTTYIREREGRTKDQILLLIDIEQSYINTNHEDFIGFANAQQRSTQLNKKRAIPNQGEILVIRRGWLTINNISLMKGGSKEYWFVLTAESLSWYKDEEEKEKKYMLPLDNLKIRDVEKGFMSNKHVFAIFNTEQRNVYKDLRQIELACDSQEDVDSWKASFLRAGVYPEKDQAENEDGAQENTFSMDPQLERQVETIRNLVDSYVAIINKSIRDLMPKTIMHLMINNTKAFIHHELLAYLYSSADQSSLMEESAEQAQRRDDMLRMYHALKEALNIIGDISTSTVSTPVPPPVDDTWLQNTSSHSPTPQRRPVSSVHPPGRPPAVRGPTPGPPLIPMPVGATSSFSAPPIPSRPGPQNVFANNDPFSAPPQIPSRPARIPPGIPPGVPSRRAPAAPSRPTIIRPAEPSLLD

[4] = target: T2, GFP-dynamin 2 GTPase effector domain (GED) (UniProt P39052); assay: as above
T2 sequence: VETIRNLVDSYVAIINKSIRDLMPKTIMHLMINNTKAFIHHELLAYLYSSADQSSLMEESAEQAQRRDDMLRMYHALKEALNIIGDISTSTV

[5] = target: T3, GFP-dynamin 2 pleckstrin homology domain (PH) (UniProt P39052); assay: as above
T3 sequence: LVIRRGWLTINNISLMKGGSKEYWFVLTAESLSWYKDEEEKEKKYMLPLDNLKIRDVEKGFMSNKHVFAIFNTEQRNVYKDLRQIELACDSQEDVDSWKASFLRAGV

GFP-PICK1 (HEK293) = GFP-PICK1 (HEK293) (UniProt Q9EP80); assay: as above
GST-PICK1 (wild type) [6] = target: GST-PICK1 (wild type) (UniProt Q9EP80); assay: pull-down; GST or GST fusion immobilised on glutathione agarose, incubated at 4°C with purified protein in direct binding buffer (20 mM Tris-HCl, 150 mM NaCl, 5 mM imidazole, 2 mM MgCl2, 1% Triton X-100, 1 mM DTT), Western blot; both purified
HA-dynamin 2 = HA-dynamin 2 (UniProt P39052); assay: co-sedimentation; dynamin polymerization: 0.2 µM purified dynamin in sedimentation buffer at room temperature for 30 min with increasing amounts of His-tagged proteins, 15 min at 20,000 g at 4°C, pellet and supernatant by Western blot; both purified
[7] = target: PICK1 (endogenous, cortical neurons) (rat (endogenous in cortical neurons)) (UniProt Q9EP80); assay: co-IP; extracts of cortical neuronal cultures in lysis buffer (20 mM Tris-HCl pH 7.5, 150 mM NaCl, 0.5% Triton X-100), 5 µg anti-PICK1 or control IgG plus protein G-Sepharose, Western blot; basal, at time points after 3 min NMDA, with cyclosporin A or FK506, with PACSIN/syndapin knock-down; remark: listed apart in the source

Molecule: GluA2 (endogenous, neurons) (from UniProt P19491 22-883) (receptor)
- binding (GST-D189A-PICK1): binds
- binding (GST-D356A-PICK1): binds
- binding (GST-DDAA-PICK1): binds
- binding (GST-PICK1 (wild type) [1]): binds
- binding [2]: binds

Molecule: Flag-PICK1 (from UniProt Q9EP80 1-416)
- binding [3]: binds
- binding [4]: no binding
- binding [5]: no binding

B1: HA-dynamin 2 (protein, UniProt P39052 1-870)
chain: MGNRGMEELIPLVNKLQDAFSSIGQSCHLDLPQIAVVGGQSAGKSSVLENFVGRDFLPRGSGIVTRRPLILQLIFSKTEYAEFLHCKSKKFTDFDEVRQEIEAETDRVTGTNKGISPVPINLRVYSPHVLNLTLIDLPGITKVPVGDQPPDIEYQIKDMILQFISRESSLILAVTPANMDLANSDALKLAKEVDPQGLRTIGVITKLDLMDEGTDARDVLENKLLPLRRGYIGVVNRSQKDIEGRKDIRAALAAERKFFLSHPAYRHMADRMGTPHLQKTLNQQLTNHIRESLPTLRSKLQSQLLSLEKEVEEYKNFRPDDPTRKTKALLQMVQQFGVDFEKRIEGSGDQVDTLELSGGARINRIFHERFPFELVKMEFDEKDLRREISYAIKNIHGVRTGLFTPDLAFEAIVKKQVVKLKEPCLKCVDLVIQELISTVRQCTSKLSSYPRLREETERIVTTYIREREGRTKDQILLLIDIEQSYINTNHEDFIGFANAQQRSTQLNKKRAIPNQGEILVIRRGWLTINNISLMKGGSKEYWFVLTAESLSWYKDEEEKEKKYMLPLDNLKIRDVEKGFMSNKHVFAIFNTEQRNVYKDLRQIELACDSQEDVDSWKASFLRAGVYPEKDQAENEDGAQENTFSMDPQLERQVETIRNLVDSYVAIINKSIRDLMPKTIMHLMINNTKAFIHHELLAYLYSSADQSSLMEESAEQAQRRDDMLRMYHALKEALNIIGDISTSTVSTPVPPPVDDTWLQNTSSHSPTPQRRPVSSVHPPGRPPAVRGPTPGPPLIPMPVGATSSFSAPPIPSRPGPQNVFANNDPFSAPPQIPSRPARIPPGIPPGVPSRRAPAAPSRPTIIRPAEPSLLD
- binding (GFP-PICK1 (HEK293)): binds
- binding (GST-PICK1 (wild type) [6]): binds
- binding (HA-dynamin 2): binds

B2: dynamin 1 (endogenous, cortical neurons) (protein, UniProt P21575 1-864)
chain: MGNRGMEDLIPLVNRLQDAFSAIGQNADLDLPQIAVVGGQSAGKSSVLENFVGRDFLPRGSGIVTRRPLVLQLVNSTTEYAEFLHCKGKKFTDFEEVRLEIEAETDRVTGTNKGISPVPINLRVYSPHVLNLTLVDLPGMTKVPVGDQPPDIEFQIRDMLMQFVTKENCLILAVSPANSDLANSDALKIAKEVDPQGQRTIGVITKLDLMDEGTDARDVLENKLLPLRRGYIGVVNRSQKDIDGKKDITAALAAERKFFLSHPSYRHLADRMGTPYLQKVLNQQLTNHIRDTLPGLRNKLQSQLLSIEKEVDEYKNFRPDDPARKTKALLQMVQQFAVDFEKRIEGSGDQIDTYELSGGARINRIFHERFPFELVKMEFDEKELRREISYAIKNIHGIRTGLFTPDLAFEATVKKQVQKLKEPSIKCVDMVVSELTSTIRKCSEKLQQYPRLREEMERIVTTHIREREGRTKEQVMLLIDIELAYMNTNHEDFIGFANAQQRSNQMNKKKTSGNQDEILVIRKGWLTINNIGIMKGGSKEYWFVLTAENLSWYKDDEEKEKKYMLSVDNLKLRDVEKGFMSSKHIFALFNTEQRNVYKDYRQLELACETQEEVDSWKASFLRAGVYPERVGDKEKASETEENGSDSFMHSMDPQLERQVETIRNLVDSYMAIVNKTVRDLMPKTIMHLMINNTKEFIFSELLANLYSCGDQNTLMEESAEQAQRRDEMLRMYHALKEALSIIGDINTTTVSTPMPPPVDDSWLQVQSVPAGRRSPTSSPTPQRRAPAVPPARPGSRGPAPGPPPAGSALGGAPPVPSRPGASPDPFGPPPQVPSRPNRAPPGVPSRSGQASPSRPESPRPPFDL
- binding [7]: binds

B3: dynamin 2 (endogenous, cortical neurons) (protein, UniProt P39052 1-870)
chain: MGNRGMEELIPLVNKLQDAFSSIGQSCHLDLPQIAVVGGQSAGKSSVLENFVGRDFLPRGSGIVTRRPLILQLIFSKTEYAEFLHCKSKKFTDFDEVRQEIEAETDRVTGTNKGISPVPINLRVYSPHVLNLTLIDLPGITKVPVGDQPPDIEYQIKDMILQFISRESSLILAVTPANMDLANSDALKLAKEVDPQGLRTIGVITKLDLMDEGTDARDVLENKLLPLRRGYIGVVNRSQKDIEGRKDIRAALAAERKFFLSHPAYRHMADRMGTPHLQKTLNQQLTNHIRESLPTLRSKLQSQLLSLEKEVEEYKNFRPDDPTRKTKALLQMVQQFGVDFEKRIEGSGDQVDTLELSGGARINRIFHERFPFELVKMEFDEKDLRREISYAIKNIHGVRTGLFTPDLAFEAIVKKQVVKLKEPCLKCVDLVIQELISTVRQCTSKLSSYPRLREETERIVTTYIREREGRTKDQILLLIDIEQSYINTNHEDFIGFANAQQRSTQLNKKRAIPNQGEILVIRRGWLTINNISLMKGGSKEYWFVLTAESLSWYKDEEEKEKKYMLPLDNLKIRDVEKGFMSNKHVFAIFNTEQRNVYKDLRQIELACDSQEDVDSWKASFLRAGVYPEKDQAENEDGAQENTFSMDPQLERQVETIRNLVDSYVAIINKSIRDLMPKTIMHLMINNTKAFIHHELLAYLYSSADQSSLMEESAEQAQRRDDMLRMYHALKEALNIIGDISTSTVSTPVPPPVDDTWLQNTSSHSPTPQRRPVSSVHPPGRPPAVRGPTPGPPLIPMPVGATSSFSAPPIPSRPGPQNVFANNDPFSAPPQIPSRPARIPPGIPPGVPSRRAPAAPSRPTIIRPAEPSLLD
- binding [7]: binds

B4: dynamin 3 (endogenous, cortical neurons) (protein, UniProt Q08877 1-869)
chain: MGNREMEELIPLVNRLQDAFSALGQSCLLELPQIAVVGGQSAGKSSVLENFVGRDFLPRGSGIVTRRPLVLQLVTSKAEYAEFLHCKGKKFTDFDEVRHEIEAETDRVTGMNKGISSVPINLRVYSPHVLNLTLIDLPGITKVPVGDQPPDIEYQIRDMIMQFITRENCLILAVTPANTDLANSDALKLAKEVDPQGLRTIGVITKLDLMDEGTDARDVLENKLLPLRRGYVGVVNRSQKDIDGKKDIKAAMLAERKFFLSHPAYRHIADRMGTPHLQKVLNQQLTNHIRDTLPNFRNKLQGQLLSIEHEVEAFKNFKPEDPTRKTKALLQMVQQFAVDFEKRIEGSGDQVDTLELSGGAKINRIFHERFPFEIVKMEFNEKELRREISYAIKNIHGIRTGLFTPDMAFEAIVKKQIVKLKGPSLKSVDLVMQELINTVKKCTKRLANFPRLCEETERIVANHIREREGKTKDQVLLLIDIQVSYINTNHEDFIGFANAQQRSSQVHKKSTIGNQGTNLPPSRQIVIRKGWLTVSNIGIMKGGSKGYWFVLTAESLSWYKDDEEKEKKYMLPLDNLKVRDVEKGFMSSKHVFALFNTEQRNVYKDYRSLELACDSQEDVDSWKASLLRAGVYPDKSFTENDENGQAENFSMDPQLERQVETIRNLVDSYMSIINKCIRDLIPKTIMHLMINNVKDFINSELLAQLYSSEDQNTLMEESVEQAQRRDEMLRMYQALKEALAIIGDINTVTVSTPAPPPVDDSWLQHSRRSPPPSPTTQRRLTLSAPLPRPASSRGPAPAIPSPGPHSGAPPVPFRPGPLPPFPNSSDSYGAPPQVPSRPTRAPPSVPSRRPPPSPTRPTIIRPLESSLLD
- binding [7]: binds
